Experimental findings from article PMC7251913 are described below.

Sequences of proteins named here, by UniProt entry; tags and fusion partners are left off.
UniProt Q96RR4: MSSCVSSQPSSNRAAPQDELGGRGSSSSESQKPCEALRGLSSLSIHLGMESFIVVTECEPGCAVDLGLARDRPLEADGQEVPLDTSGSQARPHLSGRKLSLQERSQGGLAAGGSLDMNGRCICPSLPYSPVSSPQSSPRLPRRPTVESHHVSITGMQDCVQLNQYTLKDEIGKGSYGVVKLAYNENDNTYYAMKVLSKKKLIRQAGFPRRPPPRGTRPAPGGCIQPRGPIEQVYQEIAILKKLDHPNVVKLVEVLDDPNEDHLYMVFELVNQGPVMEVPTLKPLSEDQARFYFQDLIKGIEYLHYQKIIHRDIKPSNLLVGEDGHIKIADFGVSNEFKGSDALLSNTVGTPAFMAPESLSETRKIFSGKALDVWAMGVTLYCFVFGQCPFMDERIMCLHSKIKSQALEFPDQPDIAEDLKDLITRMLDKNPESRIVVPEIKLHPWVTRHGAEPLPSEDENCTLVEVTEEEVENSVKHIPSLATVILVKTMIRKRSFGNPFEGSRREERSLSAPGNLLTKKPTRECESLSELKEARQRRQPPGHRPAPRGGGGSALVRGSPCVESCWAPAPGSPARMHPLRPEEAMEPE

Results are given in words; binding and its absence hold for the method and conditions named. Some binding calls cover weakened binding; strength is not graded here.

This assay addresses Ca2+/Calmodulin (CAM)-Dependent Protein Kinase Kinase-2 (CAMKK2) (human (endogenous in HEK293)) (UniProt Q96RR4). Nature of the assay: native gel or EMSA; two-dimensional BN-PAGE (first dimension, native, pH 7, 1.5% n-dodecyl β-D-maltoside lysis buffer) / SDS-PAGE and immunoblot of lysates of wild-type and CAMKK2-/- HEK293 cells; vertical alignment of the complexes. (Mobility shift assays separate free from complexed probe on a gel.)

B1: Ca2+/CAM Dependent Protein Kinase IV (CAMK4) (enzyme, UniProt Q16566 1-473)
chain: MLKVTVPSCSASSCSSVTASAAPGTASLVPDYWIDGSNRDALSDFFEVESELGRGATSIVYRCKQKGTQKPYALKVLKKTVDKKIVRTEIGVLLRLSHPNIIKLKEIFETPTEISLVLELVTGGELFDRIVEKGYYSERDAADAVKQILEAVAYLHENGIVHRDLKPENLLYATPAPDAPLKIADFGLSKIVEHQVLMKTVCGTPGYCAPEILRGCAYGPEVDMWSVGIITYILLCGFEPFYDERGDQFMFRRILNCEYYFISPWWDEVSLNAKDLVRKLIVLDPKKRLTTFQALQHPWVTGKAANFVHMDTAQKKLQEFNARRKLKAAVKAVVASSRLGSASSSHGSIQESHKASRDPSPIQDGNEDMKAIPEGEKIQGDGAQAAVKGAQAELMKVQALEKVKGADINAEEAPKMVPKAVEDGIKVADLELEEGLAEEKLKTVEEAAAPREGQGSSAVGFEVPQQDVILPEY
On to B1, for which the binding entry is reported as “binds”.
